Measurements reported in patent US6913925B1, “Human mesencephalon cell lines and methods of use therefor” (Signal Pharmaceuticals LLC, priority 1998, dated 2005).
At least one compound was matched to its structure with a doubt left.

System: immortalized human mesencephalon cells
Assay: Differentiation of conditionally-immortalized human mesencephalon cell lines into neurons
Type: cell-based
Description: Conditionally-immortalized human mesencephalon neural precursor cell lines (which may, but need not, be clonal) may generally be induced to differentiate into neurons by inhibiting the expression of the growth-promoting gene (i.e., suppressing the production and/or activity of the growth-promoting protein). For example, if the gene encoding the growth-promoting protein is under the control of an externally-regulatable promoter, the conditions (e.g. temperature or composition of medium) may be modified to suppress transcription of the growth-promoting gene. For the tetracycline-controlled gene expression system discussed above, differentiation may be achieved by the addition of tetracycline to suppress transcription of the growth-promoting gene. In general, 1-5 μg/mL tetracycline for 48 hours is sufficient to begin neuronal morphological differentiation, and the number of differentiated neurons increases during subsequent days. Such differentiation may be performed, for example, by plating the cells on a suitable substrate (e.g., one or a combination of polyamino acid, fibronectin, laminin or tissue culture plastic) in a medium consisting of DMEM/F-12 with N2 supplement and tetracycline (1-5 μg/mL). […] Culture medium may then be refreshed (e.g., every 2-4 days).
An increase in TH expression was also observed for some cell lines, indicating the presence of dopaminergic neurons. […]

Row | Compound | enhancement of differentiation by addition to DMEM/F-12 with N2 supplement and tetracycline (added together: forskolin 10 μM, GDNF 20 ng/mL, CNTF 20 ng/mL, IGF-I 100 ng/mL, BDNF 20 ng/mL) | neuronal differentiation of cell lines (differentiation of cell lines with tetracycline (FIG. 1))
1 | C=C[C@@]1(C)CC(=O)[C@]2(O)[C@@]3(C)[C@@H](O)CCC(C)(C)[C@@H]3[C@H](O)[C@H](OC(C)=O)[C@@]2(C)O1 [forskolin] | differentiation is enhanced | –
2 | CN(C)[C@@H]1C(O)=C(C(N)=O)C(=O)[C@@]2(O)C(O)=C3C(=O)c4c(O)cccc4[C@@](C)(O)[C@H]3C[C@@H]12 [tetracycline] | – | increased neuronal differentiation
